Results are given in words; binding and its absence hold for the method and conditions named. Binding seen in cells or lysates may run through a third protein. A result given as binding can be weak or reduced; the word gives no strength.
Target: SIRT3
Experiment: co-IP; SIRT3 with PDHA1 and with CPT2; details only in Supplementary Fig. S7a, b

B1: ectopically expressed CPT2 (enzyme, UniProt P23786 26-658)
chain: SAGSGPGQYLQRSIVPTMHYQDSLPRLPIPKLEDTIRRYLSAQKPLLNDGQFRKTEQFCKSFENGIGKELHEQLVALDKQNKHTSYISGPWFDMYLSARDSVVLNFNPFMAFNPDPKSEYNDQLTRATNMTVSAIRFLKTLRAGLLEPEVFHLNPAKSDTITFKRLIRFVPSSLSWYGAYLVNAYPLDMSQYFRLFNSTRLPKPSRDELFTDDKARHLLVLRKGNFYIFDVLDQDGNIVSPSEIQAHLKYILSDSSPAPEFPLAYLTSENRDIWAELRQKLMSSGNEESLRKVDSAVFCLCLDDFPIKDLVHLSHNMLHGDGTNRWFDKSFNLIIAKDGSTAVHFEHSWGDGVAVLRFFNEVFKDSTQTPAVTPQSQPATTDSTVTVQKLNFELTDALKTGITAAKEKFDATMKTLTIDCVQFQRGGKEFLKKQKLSPDAVAQLAFQMAFLRQYGQTVATYESCSTAAFKHGRTETIRPASVYTKRCSEAFVREPSRHSAGELQQMMVECSKYHGQLTKEAAMGQGFDRHLFALRHLAAAKGIILPELYLDPAYGQINHNVLSTSTLSSPAVNLGGFAPVVSDGFGVGYAVHDNWIGCNVSSYPGRNAREFLQCVEKALEDMFDALEGKSIKS
Question: With B1 as the binder, how does the binding read?
Answer: binds
